# In the supplement of paper PMC11732987, “Enantioselective OTUD7B fragment discovery through chemoproteomics screening and high-throughput optimisation” (Communications Chemistry, 2025):
# Amino acid sequences for entries named in this document (tags omitted). A change or cut given only in a name is not applied to a line headed by its entry. Residues count along the entry.
# UniProt Q9BW62, 78-108: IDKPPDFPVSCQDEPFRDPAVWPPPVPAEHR
# UniProt Q9H9V9, 86-107: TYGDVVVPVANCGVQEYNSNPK
# UniProt Q9Y496, whole entry, looked up: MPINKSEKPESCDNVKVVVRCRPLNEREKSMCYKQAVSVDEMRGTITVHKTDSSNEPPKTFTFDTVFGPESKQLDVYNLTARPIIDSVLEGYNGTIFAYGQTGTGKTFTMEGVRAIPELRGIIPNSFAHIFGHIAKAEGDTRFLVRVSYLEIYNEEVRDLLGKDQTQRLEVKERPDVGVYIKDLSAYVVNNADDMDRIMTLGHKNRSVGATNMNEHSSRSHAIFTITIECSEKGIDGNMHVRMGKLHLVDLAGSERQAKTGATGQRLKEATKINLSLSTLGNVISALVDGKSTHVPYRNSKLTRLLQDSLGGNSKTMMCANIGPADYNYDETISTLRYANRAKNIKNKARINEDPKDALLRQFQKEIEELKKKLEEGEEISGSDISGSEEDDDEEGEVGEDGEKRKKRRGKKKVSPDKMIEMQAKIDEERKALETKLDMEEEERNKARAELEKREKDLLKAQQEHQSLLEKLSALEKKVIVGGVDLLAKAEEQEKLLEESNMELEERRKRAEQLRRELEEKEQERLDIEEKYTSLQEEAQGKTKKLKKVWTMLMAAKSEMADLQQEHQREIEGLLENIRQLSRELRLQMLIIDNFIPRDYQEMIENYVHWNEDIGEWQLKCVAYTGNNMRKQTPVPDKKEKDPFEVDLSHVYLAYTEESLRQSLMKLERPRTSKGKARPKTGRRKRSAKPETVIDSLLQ
# UniProt P14923, 87-115: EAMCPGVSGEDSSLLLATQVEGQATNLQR
# UniProt Q9H1H9: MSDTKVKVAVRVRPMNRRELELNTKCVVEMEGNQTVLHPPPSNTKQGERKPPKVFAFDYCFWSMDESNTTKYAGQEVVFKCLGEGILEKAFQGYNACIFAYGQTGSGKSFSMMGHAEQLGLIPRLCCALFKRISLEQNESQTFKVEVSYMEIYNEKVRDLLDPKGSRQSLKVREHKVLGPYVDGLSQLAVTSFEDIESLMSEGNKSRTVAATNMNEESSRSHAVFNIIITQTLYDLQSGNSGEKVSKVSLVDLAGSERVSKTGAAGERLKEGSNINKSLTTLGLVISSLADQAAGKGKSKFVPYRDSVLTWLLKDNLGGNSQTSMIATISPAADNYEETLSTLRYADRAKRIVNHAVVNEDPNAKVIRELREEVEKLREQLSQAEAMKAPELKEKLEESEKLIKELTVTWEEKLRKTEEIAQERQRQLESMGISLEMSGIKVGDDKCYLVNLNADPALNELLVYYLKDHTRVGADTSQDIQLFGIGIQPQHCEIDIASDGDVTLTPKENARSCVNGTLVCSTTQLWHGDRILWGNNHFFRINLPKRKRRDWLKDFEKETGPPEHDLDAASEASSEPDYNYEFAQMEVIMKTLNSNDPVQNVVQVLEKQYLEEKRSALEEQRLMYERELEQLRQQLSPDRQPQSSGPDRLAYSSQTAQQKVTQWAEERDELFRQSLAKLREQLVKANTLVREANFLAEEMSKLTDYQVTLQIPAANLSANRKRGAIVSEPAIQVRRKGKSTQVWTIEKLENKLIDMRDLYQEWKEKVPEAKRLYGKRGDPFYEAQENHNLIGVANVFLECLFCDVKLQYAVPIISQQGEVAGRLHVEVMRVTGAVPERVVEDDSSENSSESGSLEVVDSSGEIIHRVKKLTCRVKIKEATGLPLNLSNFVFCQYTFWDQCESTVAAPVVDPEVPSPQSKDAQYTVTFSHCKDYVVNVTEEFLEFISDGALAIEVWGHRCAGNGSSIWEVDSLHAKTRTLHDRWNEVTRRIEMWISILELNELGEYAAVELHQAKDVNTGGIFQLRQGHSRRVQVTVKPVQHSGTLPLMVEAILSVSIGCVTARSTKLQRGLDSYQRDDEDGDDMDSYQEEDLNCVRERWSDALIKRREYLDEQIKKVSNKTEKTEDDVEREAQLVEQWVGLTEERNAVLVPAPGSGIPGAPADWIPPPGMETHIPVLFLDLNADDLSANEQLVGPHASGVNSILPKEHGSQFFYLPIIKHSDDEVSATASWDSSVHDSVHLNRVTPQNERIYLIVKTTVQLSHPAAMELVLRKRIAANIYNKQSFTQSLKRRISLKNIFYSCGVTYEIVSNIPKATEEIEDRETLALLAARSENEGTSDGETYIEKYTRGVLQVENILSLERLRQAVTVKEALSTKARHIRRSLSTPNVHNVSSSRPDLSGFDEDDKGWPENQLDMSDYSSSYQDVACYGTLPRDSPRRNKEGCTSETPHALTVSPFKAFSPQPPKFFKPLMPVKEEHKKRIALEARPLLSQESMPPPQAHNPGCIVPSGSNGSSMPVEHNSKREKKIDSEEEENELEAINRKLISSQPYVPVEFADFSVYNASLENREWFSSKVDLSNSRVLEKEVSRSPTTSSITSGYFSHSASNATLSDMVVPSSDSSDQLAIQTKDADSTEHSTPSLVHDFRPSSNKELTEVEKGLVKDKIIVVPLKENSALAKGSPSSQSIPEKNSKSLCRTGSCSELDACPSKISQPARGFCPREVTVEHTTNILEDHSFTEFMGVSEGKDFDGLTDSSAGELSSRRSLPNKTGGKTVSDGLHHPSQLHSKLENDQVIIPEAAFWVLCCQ
# UniProt Q02241: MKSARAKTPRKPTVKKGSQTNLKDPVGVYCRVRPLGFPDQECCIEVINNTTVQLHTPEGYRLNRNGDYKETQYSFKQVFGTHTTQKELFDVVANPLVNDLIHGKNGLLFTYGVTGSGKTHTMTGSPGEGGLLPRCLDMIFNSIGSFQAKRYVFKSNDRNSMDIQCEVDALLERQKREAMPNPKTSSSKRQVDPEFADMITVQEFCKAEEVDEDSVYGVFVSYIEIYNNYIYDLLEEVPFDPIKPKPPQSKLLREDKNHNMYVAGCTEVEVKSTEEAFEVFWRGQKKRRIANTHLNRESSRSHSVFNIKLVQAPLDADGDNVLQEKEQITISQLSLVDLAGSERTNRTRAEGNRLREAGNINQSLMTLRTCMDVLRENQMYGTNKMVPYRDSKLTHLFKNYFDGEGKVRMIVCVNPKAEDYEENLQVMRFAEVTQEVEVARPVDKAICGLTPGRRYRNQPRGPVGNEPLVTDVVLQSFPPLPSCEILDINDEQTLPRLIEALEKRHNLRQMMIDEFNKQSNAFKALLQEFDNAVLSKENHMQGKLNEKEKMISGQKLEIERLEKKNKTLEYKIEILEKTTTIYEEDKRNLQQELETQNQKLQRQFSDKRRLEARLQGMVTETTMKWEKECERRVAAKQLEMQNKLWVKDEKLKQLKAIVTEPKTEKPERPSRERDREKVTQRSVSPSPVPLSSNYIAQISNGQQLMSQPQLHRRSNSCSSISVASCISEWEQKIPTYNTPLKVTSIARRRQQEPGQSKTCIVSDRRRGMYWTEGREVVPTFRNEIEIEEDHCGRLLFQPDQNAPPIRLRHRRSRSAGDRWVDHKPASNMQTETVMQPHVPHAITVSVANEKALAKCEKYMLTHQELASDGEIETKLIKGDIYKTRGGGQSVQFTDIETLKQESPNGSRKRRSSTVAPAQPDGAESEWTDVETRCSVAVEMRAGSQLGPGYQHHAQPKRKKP
# UniProt Q9NQT8: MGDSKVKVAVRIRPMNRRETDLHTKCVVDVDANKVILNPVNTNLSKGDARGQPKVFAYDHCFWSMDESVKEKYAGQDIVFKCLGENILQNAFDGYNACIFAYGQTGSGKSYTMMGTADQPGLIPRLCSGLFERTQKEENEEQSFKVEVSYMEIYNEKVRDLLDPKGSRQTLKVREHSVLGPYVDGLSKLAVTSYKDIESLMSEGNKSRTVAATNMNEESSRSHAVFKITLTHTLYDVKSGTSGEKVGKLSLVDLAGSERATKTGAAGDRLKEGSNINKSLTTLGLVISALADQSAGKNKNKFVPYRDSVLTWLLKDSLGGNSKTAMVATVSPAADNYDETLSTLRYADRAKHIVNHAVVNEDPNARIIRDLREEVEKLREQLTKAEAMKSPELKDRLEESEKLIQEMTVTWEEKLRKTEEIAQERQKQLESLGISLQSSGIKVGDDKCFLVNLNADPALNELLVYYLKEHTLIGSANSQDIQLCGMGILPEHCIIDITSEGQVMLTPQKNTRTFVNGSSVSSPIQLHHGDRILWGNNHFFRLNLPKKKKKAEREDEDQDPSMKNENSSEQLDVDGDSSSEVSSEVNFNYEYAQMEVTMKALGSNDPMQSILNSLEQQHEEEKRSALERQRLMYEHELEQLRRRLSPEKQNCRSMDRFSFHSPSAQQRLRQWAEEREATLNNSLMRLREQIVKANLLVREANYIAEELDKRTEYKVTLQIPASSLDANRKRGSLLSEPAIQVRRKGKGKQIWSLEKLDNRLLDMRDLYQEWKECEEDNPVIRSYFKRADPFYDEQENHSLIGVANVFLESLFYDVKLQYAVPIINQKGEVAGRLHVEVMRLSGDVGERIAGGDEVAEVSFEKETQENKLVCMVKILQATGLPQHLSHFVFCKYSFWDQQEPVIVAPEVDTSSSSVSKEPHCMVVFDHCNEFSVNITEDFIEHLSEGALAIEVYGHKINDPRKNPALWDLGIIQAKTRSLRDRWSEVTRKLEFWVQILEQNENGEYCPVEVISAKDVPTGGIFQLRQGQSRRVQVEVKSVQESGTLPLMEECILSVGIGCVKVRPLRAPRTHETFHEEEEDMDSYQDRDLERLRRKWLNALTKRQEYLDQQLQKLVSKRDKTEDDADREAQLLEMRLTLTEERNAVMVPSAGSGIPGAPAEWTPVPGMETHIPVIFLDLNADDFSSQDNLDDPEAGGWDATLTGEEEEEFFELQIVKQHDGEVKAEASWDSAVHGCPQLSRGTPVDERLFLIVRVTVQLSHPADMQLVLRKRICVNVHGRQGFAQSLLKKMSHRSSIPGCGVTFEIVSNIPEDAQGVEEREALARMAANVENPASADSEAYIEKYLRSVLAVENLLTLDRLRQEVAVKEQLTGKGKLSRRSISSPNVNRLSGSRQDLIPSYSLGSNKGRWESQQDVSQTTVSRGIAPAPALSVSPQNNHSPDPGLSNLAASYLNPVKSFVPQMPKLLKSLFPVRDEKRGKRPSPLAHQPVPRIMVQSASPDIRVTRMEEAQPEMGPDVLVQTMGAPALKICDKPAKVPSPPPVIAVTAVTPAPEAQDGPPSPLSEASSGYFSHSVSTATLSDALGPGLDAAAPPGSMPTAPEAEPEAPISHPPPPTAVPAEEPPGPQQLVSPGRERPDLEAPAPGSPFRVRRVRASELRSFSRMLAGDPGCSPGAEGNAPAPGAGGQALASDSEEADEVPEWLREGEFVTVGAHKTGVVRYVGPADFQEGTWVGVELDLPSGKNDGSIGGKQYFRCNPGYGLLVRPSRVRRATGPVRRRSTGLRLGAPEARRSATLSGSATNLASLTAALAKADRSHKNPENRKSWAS
# UniProt Q06136: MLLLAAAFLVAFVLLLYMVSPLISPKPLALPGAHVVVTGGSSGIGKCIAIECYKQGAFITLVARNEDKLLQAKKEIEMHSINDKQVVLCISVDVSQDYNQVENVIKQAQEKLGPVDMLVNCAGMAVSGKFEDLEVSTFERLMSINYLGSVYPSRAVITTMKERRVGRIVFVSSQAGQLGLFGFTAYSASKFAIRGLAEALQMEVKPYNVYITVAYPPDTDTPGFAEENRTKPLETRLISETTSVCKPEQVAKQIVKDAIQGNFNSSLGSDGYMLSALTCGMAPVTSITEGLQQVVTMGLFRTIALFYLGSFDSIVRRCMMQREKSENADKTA
# UniProt Q7Z5Y7: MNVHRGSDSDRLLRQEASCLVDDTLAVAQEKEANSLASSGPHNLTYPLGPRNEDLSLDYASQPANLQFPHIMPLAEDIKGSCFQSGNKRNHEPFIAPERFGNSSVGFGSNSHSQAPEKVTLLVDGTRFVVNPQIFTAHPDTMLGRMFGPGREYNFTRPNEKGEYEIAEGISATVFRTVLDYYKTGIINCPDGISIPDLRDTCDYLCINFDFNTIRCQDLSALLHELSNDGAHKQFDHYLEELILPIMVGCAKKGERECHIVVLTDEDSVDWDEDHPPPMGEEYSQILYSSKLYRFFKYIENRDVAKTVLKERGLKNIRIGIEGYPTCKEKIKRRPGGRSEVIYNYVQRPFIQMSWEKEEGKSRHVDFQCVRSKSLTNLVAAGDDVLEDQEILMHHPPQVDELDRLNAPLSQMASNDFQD
# UniProt O00180: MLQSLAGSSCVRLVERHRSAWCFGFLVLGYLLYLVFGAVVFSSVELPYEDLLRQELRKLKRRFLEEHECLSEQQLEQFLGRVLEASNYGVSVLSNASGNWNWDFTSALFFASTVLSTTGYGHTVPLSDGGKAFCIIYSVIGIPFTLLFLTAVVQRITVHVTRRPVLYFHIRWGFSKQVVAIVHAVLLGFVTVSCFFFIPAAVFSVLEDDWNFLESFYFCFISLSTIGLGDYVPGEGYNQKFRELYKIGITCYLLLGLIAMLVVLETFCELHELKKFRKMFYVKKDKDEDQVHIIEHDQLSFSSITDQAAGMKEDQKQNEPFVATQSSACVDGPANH
# The list shows a part of the results. The data scatter; read single values as rough.
# Compound: ClCC(=O)N[C@H]1CCCc2ccccc12
# Assay: log2 mean competition ratio of IA-DTB cysteine labelling (DMSO/compound) (log2 ratio); higher = stronger cysteine engagement by compound
# Conditions: 50 µM; treatment time: 4 h; cell line lysate: HEK293T
# Experimental: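 IA-DTB competitive cysteine chemoproteomics in HEK293T RIPA lysate. Lysates were treated with compound 29 or 30 at 50 or 200 µM for 4 h, then IA-DTB (500 µM, 1 h), trypsin-digested, NeutrAvidin-enriched and analysed by diaPASEF. Competition ratio = intensity DMSO / intensity compound (n=4 treated, n=64 DMSO); binding: mean log2 CR ≥ 1 and p ≤ 0.05 plus QC filters. Target is the cysteine site.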
row,Target,log2 mean competition ratio
1,KIF11 C704 (UniProt P52732),-0.279
2,KATNAL1 C88 (UniProt Q9BW62),-0.102
3,JMJD4 C143 (UniProt Q9H9V9),-0.108
4,KDELR1 C29 (UniProt P24390),0.106
5,KIF11 C450 (UniProt P52732),-0.644
6,KIAA1522 C321 (UniProt Q9P206),-0.256
7,KIF20A C407 (UniProt O95235),-0.285
8,KIF3A C12 (UniProt Q9Y496),-0.328
9,KIF20A C778 (UniProt O95235),-0.503
10,KDM3A C1140 (UniProt Q9Y4C1),-0.672
11,JUP C90 (UniProt P14923),0.203
12,ITPR2 C420 (UniProt Q14571),-0.0693
13,KIF18B C513 (UniProt Q86Y91),0.631
14,KIF13A C958 (UniProt Q9H1H9),0.23
15,KIF23 C447 (UniProt Q02241),0.342
16,KIF1A C1645,-0.176
17,JAK1 C827 (UniProt P23458),-0.213
18,KIF13B C26 (UniProt Q9NQT8),-0.298
19,KDM4A C533 (UniProt O75164),0.513
20,KIF4A C1171 (UniProt O95239),0.298
21,KIF23 C933 (UniProt Q02241),-0.185
22,KIAA1958 C73,-0.0581
23,KDSR C245 (UniProt Q06136),-0.192
24,KCTD20 C369 (UniProt Q7Z5Y7),0.0325
25,KIF21A C1144,0.22
26,ITSN2 C1389 (UniProt Q9NZM3),-0.0669
27,KCNK1 C69 (UniProt O00180),-0.279

# Random excerpt: 2 entries already listed, in no set order.
row,Target,log2 mean competition ratio
27,KCNK1 C69 (UniProt O00180),-0.279
21,KIF23 C933 (UniProt Q02241),-0.185
